Results are given in words; binding and its absence hold for the method and conditions named. Some binding calls cover weakened binding; strength is not graded here. Each block holds one binder with its values, some of them ahead of it.
What was measured:
[1] = target: T1, mouse VEGF (mouse) (UniProt Q00731); experiment: SPR (Biacore 2000)
T1 sequence (looked up): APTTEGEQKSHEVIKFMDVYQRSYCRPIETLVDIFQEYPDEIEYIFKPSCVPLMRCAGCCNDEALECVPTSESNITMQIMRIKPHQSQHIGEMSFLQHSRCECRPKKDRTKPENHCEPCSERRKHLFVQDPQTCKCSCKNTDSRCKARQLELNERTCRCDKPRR

[2] = target: T1, mouse VEGF (mouse); experiment: SPR (Biacore 2000), title of Table 2

binding [1]: binds | binding [2]: binds
B1: 219R0202 IgG (anti-VEGF antibody reformatted to IgG2) (antibody, V domains shown)
VH: QVQLKQSGAELVKPGASVKLSCKASGYTFTNYWMHWVKLRPGQGFEWIGDINPSNGGTSYNEKFKRKATLTVDKSSSTAYMQLSSLTSEDSAVYYCTIHYYDNSYAMDYWGQGTSVTVSS
VL: DIQLTQSPSSLSASVGDRVTITCRASQGINNHLAWYQQKPGKVPKSLIYAASNLHSGVPSKFSGSGSGTHFTLIISSLQPEDIATYYCQQYDNLPLTFGGGTKVEIKR

binding [1]: binds | binding [2]: binds
B2: 219R0302 IgG (anti-VEGF antibody reformatted to IgG2) (antibody, V domains shown)
VH: B1 VH
VL: DIQMTQSPSSLSASVGDRVTITCQASQDISNYVNWYQQKPGKAPKLLIYDASNLQTGVPSRFSGRGSGTHFTFTISSLQPEDLATYYCQQYDDLPPTFGRGTKLEIKR
